These are yes or no findings as the source states them, for the method shown. In cells and extracts the contact can be indirect. Some entries that bind do so weakly or less than the wild type. Where a sequence is shown, tags or fusion partners need not be part of it.
Key:
GFP-BNIP3 = GFP-BNIP3 (UniProt Q12983); experiment: co-IP
GFP-NIX = GFP-NIX (UniProt O60238); experiment: co-IP

The chains behind the UniProt entries cited, without tags or fusion partners.
UniProt Q12983: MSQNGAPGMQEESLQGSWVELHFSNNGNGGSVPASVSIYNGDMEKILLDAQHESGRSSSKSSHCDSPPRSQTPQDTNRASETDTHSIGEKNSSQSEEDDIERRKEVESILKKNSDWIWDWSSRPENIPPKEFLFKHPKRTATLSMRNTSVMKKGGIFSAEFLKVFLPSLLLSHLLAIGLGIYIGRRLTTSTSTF
UniProt O60238: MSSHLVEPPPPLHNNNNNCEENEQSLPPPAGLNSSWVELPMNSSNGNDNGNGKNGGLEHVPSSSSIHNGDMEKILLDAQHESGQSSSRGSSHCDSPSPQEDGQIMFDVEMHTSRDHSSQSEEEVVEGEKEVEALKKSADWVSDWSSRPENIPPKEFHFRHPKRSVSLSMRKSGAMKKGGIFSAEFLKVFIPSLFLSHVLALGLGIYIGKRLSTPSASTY

B1: FBXL4-3xFlag (protein, UniProt Q9UKA2 1-621)
chain: MSPVFPMLTVLTMFYYICLRRRARTATRGEMMNTHRAIESNSQTSPLNAEVVQYAKEVVDFSSHYGSENSMSYTMWNLAGVPNVFPSSGDFTQTAVFRTYGTWWDQCPSASLPFKRTPPNFQSQDYVELTFEQQVYPTAVHVLETYHPGAVIRILACSANPYSPNPPAEVRWEILWSERPTKVNASQARQFKPCIKQINFPTNLIRLEVNSSLLEYYTELDAVVLHGVKDKPVLSLKTSLIDMNDIEDDAYAEKDGCGMDSLNKKFSSAVLGEGPNNGYFDKLPYELIQLILNHLTLPDLCRLAQTCKLLSQHCCDPLQYIHLNLQPYWAKLDDTSLEFLQSRCTLVQWLNLSWTGNRGFISVAGFSRFLKVCGSELVRLELSCSHFLNETCLEVISEMCPNLQALNLSSCDKLPPQAFNHIAKLCSLKRLVLYRTKVEQTALLSILNFCSELQHLSLGSCVMIEDYDVIASMIGAKCKKLRTLDLWRCKNITENGIAELASGCPLLEELDLGWCPTLQSSTGCFTRLAHQLPNLQKLFLTANRSVCDTDIDELACNCTRLQQLDILGTRMVSPASLRKLLESCKDLSLLDVSFCSQIDNRAVLELNASFPKVFIKKSFTQ
binding (GFP-BNIP3): binds
binding (GFP-NIX): binds
